Results deposited as PubChem BioAssay AID743454 (Peter MacCallum Cancer Centre, 2014).
The whole screen tested about 18,000 reagents; this is a random part of them. 450 of them (2.5%) were called active. 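Single biological run; no consistent viability z cut-off exists, so the class columns, not z-scores, define the calls.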 Unmarked entries are inactive. No sequences are given here.

Assay: 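Knock-downs lowering viability or raising caspase 3/7 activity in vorinostat-treated resistant cells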 (primary screen)
Cell system: human HCT116-VR colon cancer cells, selected for vorinostat resistance
Knock-down reagent: siRNA pool against human genes, 40 nM siRNA pool
Duration: vorinostat for 24 h, read-out about 72 h after transfection
Conditions: vorinostat at 2.5 µM final
Read-out: 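Two measures, CellTiter-Fluor viability and luminescent caspase 3/7 activity, each as fold change against same-plate mock wells, mean of duplicates, then screen-wide robust z-score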
Reading the numbers: viability robust z-score: higher = more viable cells than screen typical; caspase robust z-score: higher = more caspase 3/7 activity than screen typical
Call rule: 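Hits are knock-downs in viability class RV1/RV2 or caspase class CA1/CA2, excluding ones that killed cells in the no-drug cell-count arm; hits then retested with single siRNAs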

The opening 2 records, ahead of the listing:
gene	viability hit class	caspase hit class	viability robust z-score	caspase robust z-score
HLA-B (major histocompatibility complex, class I, B)	no change	no change	-0.34	5.04
RNF207 (ring finger protein 207)	no change	no change	0.36	-0.01

Results, repeating the preview:
gene	viability hit class	caspase hit class	viability robust z-score	caspase robust z-score
HLA-B (major histocompatibility complex, class I, B)	no change	no change	-0.34	5.04
RNF207 (ring finger protein 207)	no change	no change	0.36	-0.01
SPG11 (SPG11 vesicle trafficking associated, spatacsin)	no change	no change	-0.29	-0.06
FGD2 (FYVE, RhoGEF and PH domain containing 2)	no change	no change	-1.5	0.38
DUSP11 (dual specificity phosphatase 11)	no change	no change	0.24	2.86
TLR8 (toll like receptor 8)	no change	no change	-0.44	-0.53
KIAA1191	RV2 (reduced viability) (active)	no change	-2.93	-0.42
PBX4 (PBX homeobox 4)	no change	no change	0.82	-0.84
JPT1 (Jupiter microtubule associated homolog 1)	no change	no change	-0.93	-0.99
PAMR1	no change	no change	0.33	1.21
ECRG4 (ECRG4 augurin precursor)	no change	no change	0.58	-0.81
ZNF189 (zinc finger protein 189)	no change	no change	0.2	-0.32
TMEM121 (transmembrane protein 121)	no change	no change	-0.34	0.93
ATP8B1 (ATPase phospholipid transporting 8B1)	no change	no change	-0.06	2.17
SLC4A11	no change	no change	1.36	-1.16
DHRS11 (dehydrogenase/reductase 11)	no change	no change	0.6	-0.54
UNC79 (unc-79 subunit of NALCN channel complex)	no change	no change	-1.28	2.08
TSPAN5 (tetraspanin 5)	no change	no change	-0.26	0.3
ZNF444 (zinc finger protein 444)	no change	no change	-0.64	-0.02
NUP62 (nucleoporin 62)	RV2 (reduced viability) (active)	CA2 (caspase activation)	-3.42	8.13
MMS22L (MMS22 like, DNA repair protein)	no change	no change	-0.02	-0.04
SCARB2 (scavenger receptor class B member 2)	no change	no change	1.36	-0.44
TCF21 (transcription factor 21)	no change	no change	-1.25	-0.46
WDR76 (WD repeat domain 76)	no change	no change	0.01	-0.95
HEMK2	no change	no change	-0.07	0.72
DDX53 (DEAD-box helicase 53)	no change	no change	-0.22	1.08
FOXF1 (forkhead box F1)	no change	no change	0.26	3.04
C1QC (complement C1q C chain)	no change	no change	0	-0.82
UBE2L3 (ubiquitin conjugating enzyme E2 L3)	no change	no change	-1.6	0.5
PLS3 (plastin 3)	no change	no change	1.21	-0.29
NF2 (NF2, moesin-ezrin-radixin like (MERLIN) tumor suppressor)	no change	no change	-0.61	3.3
LGI1 (leucine rich glioma inactivated 1)	no change	no change	-1.42	2.27
NSMF	no change	no change	0.18	-0.64
OXR1 (oxidation resistance 1)	no change	no change	1.08	-0.32
RBM18 (RNA binding motif protein 18)	no change	no change	-0.17	-0.24
ZPBP (zona pellucida binding protein)	no change	no change	-0.01	2.1
EIF1B (eukaryotic translation initiation factor 1B)	no change	no change	1.53	0.37
SIRAL1 (SIR2 antiphage like 1)	no change	no change	0.12	-0.96
STAC (SH3 and cysteine rich domain)	no change	no change	-0.04	0.07
